# Screening data, single-dose tests

Protein sequences, listed by entry. Tags and fused reporters are not part of them. Residues count along the entry.
UniProt P9WFT3, whole entry: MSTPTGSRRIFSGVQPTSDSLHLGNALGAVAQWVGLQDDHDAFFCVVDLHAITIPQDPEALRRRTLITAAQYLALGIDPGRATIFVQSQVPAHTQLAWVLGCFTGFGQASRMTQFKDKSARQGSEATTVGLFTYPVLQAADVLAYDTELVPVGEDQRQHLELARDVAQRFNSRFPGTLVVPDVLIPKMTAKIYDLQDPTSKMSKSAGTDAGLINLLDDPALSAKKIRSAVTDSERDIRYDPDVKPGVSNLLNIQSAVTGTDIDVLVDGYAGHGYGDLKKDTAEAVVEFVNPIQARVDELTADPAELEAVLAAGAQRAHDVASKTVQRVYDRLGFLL
UniProt Q4DA54, 1-478: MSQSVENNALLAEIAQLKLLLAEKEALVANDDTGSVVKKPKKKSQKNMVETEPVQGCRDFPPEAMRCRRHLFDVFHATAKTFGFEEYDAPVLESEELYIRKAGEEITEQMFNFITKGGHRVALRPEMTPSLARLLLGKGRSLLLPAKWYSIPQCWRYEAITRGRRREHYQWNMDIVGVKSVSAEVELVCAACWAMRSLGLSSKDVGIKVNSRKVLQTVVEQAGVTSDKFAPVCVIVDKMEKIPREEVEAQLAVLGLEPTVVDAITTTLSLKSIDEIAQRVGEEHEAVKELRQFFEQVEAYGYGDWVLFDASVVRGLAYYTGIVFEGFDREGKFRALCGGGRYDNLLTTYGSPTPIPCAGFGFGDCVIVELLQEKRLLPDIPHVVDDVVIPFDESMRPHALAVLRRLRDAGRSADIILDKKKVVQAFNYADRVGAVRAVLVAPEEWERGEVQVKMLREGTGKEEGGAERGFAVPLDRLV

Data taken from ChEMBL document CHEMBL3988442, “University of Dundee, Small-Polar-MMV Screening Library” (2021).

MtTrpRS: 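Tryptophan-tRNA ligase, Mycobacterium tuberculosis (UniProt P9WFT3). Enzyme assay of tryptophanyl-tRNA synthetase; the read-out is not stated. Compounds at 10 µM. Higher most likely means stronger inhibition; the record gives no direction and few retests gave an IC50. Size under these conditions: about 65,000 compounds, about 64 of them at 50% or above in at least one test.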
Leishmania in macrophages: 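Cell assay of Leishmania donovani living inside macrophages; the read-out is not stated. Compounds at 30 µM. Higher reads as stronger inhibition (inferred: compounds with an IC50 in retests scored well above the rest). Of about 69,000 compounds tested this way, about 1,000 (1.5%) reached 50% or more in at least one test.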
TcHisRS: 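Histidine-tRNA ligase, Trypanosoma cruzi CL Brener (UniProt Q4DA54). Enzyme assay of histidyl-tRNA synthetase; the read-out is not stated. Compounds at 30 µM. Direction is inferred from retests: higher values go with stronger inhibition. Of about 69,000 compounds tested this way, about 31 (0.045%) reached 50% or more in at least one test.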

Values are the deposited “Percent Effect”, in %.
The controls that fix the scale are not given in the record; negative values are as filed.
The compounds are a random part of those screened.
Two or more numbers in one place are separate tests of the same structure; such repeats can differ widely.

- CCOc1ccc(N(C)S(=O)(=O)c2c[nH]c(C(C)C)n2)cc1 | MtTrpRS: -7.78%; Leishmania in macrophages: -10.58%; TcHisRS: 2.703%
- Cc1noc(C)c1CN(C)C(=O)CN1CC(c2ccccc2)CC1=O (centres unmarked) | MtTrpRS: 5.55%; Leishmania in macrophages: 1.475%; TcHisRS: -1.064%
- CC(C)NC(=O)[C@@H](NC(=O)N1CCN(c2ccc(Cl)cc2)CC1)C(C)C | MtTrpRS: 1.587%; Leishmania in macrophages: 14.79%; TcHisRS: 9.091%
- CC[S+](CC)[c-]1c(=O)[nH]c(=O)n(Cc2ccc(F)cc2)c1=O | MtTrpRS: -5.575%; Leishmania in macrophages: 9.117%; TcHisRS: 5.208%
- Cc1cnn(CCC(=O)N2CCC(Nc3cccnn3)CC2)c1 | MtTrpRS: -5.243%; Leishmania in macrophages: 1.115%; TcHisRS: 3.759%
- CCC(C)(CC(=O)OC)NC(=O)c1ccc2[nH]ccc2c1 (centres unmarked) | MtTrpRS: 7.285%; Leishmania in macrophages: -0.3238%; TcHisRS: 0.6024%
- Cc1ccc2c(n1)N(C)CCN(CCN1CCCC1)C2 | MtTrpRS: -2.607%; TcHisRS: 8.602%
- COc1cccc(Cn2c(C)c(C)oc2=O)c1OC | MtTrpRS: -2.261%; Leishmania in macrophages: 29.14%; TcHisRS: -2.4%
- Cn1c(CN2CCC(O)CC2)nnc1C1CCCN(c2ccncc2)C1 (centres unmarked) | MtTrpRS: -3.606%; Leishmania in macrophages: 10.67%; TcHisRS: 1.163%
- Cc1occc1C(=O)N1CC(C(=O)N2CCOCC2)C2(CCOCC2)C1 (centres unmarked) | MtTrpRS: -3.426%; Leishmania in macrophages: -52.75% and -11.11%; TcHisRS: 6.452%
- CC(=O)NCCc1ccc(S(=O)(=O)N(CC(C)C)C(C)C)s1 | MtTrpRS: 8.91%; Leishmania in macrophages: 1.352%; TcHisRS: 0.813%
- CN(C)C(=O)c1ccc(C2CCCNC2)nc1.Cl.Cl (centres unmarked) | Leishmania in macrophages: 8.158%
- Cc1ccc(CN2Cc3nccn3CC(Cn3cccn3)C2)s1 (centres unmarked) | TcHisRS: 8.84%
- Cn1ccnc1CN1CCC(Cn2cc(-c3ccncc3)nn2)CC1 | MtTrpRS: 6.679%; Leishmania in macrophages: 9.634%; TcHisRS: 1.064%
- [H][C@]12CC[C@@]3(N=C(CC)N(CC(C)C)C3=O)[C@@]1([H])CN(S(=O)(=O)N(C)C)C2 | Leishmania in macrophages: -20.04%
- Cc1nn(C)c(Cl)c1C1CCCN1C(=O)c1cc[nH]n1 (centres unmarked) | MtTrpRS: -2.739%; Leishmania in macrophages: 5.304%; TcHisRS: 3.008%
- Cn1cnnc1C1CCCN(C(=O)c2cc(C3CC3)on2)C1 (centres unmarked) | MtTrpRS: 0.144%; Leishmania in macrophages: -24.11%; TcHisRS: 2.97%
- N#Cc1cccnc1N1CCCC(CO)(Cc2ccccc2F)C1 (centres unmarked) | MtTrpRS: -1.016%; Leishmania in macrophages: 2.884%; TcHisRS: 0%
- O=C(O)C(F)(F)F.O=C(O)C(F)(F)F.O=C(O)C(F)(F)F.[H][C@@]12CCCO[C@]1([H])[C@@H](Oc1ncccc1F)CN2Cc1cnn(C)c1 | Leishmania in macrophages: 40.21%
- CC(CN1CCCC1=O)NC(=O)c1cc(Cl)c2c(c1)OCO2 (centres unmarked) | MtTrpRS: 0.5735%; Leishmania in macrophages: -42.28%; TcHisRS: 0.8772%
- CC(C)c1nc(C2CCCN2C(=O)c2cc(Cl)c[nH]2)no1 (centres unmarked) | MtTrpRS: -0.5663%; Leishmania in macrophages: -3.958%; TcHisRS: 9.845%
- NC1CCN(C2CCN(c3ccc(-c4ccco4)cc3)CC2)CC1 | MtTrpRS: 7.543%; Leishmania in macrophages: -63.05%; TcHisRS: 43.53%
- Cc1cc(CS(=O)(=O)CC(=O)N2c3ccccc3CC2C)no1 (centres unmarked) | MtTrpRS: 0.5201%; Leishmania in macrophages: -23.28%; TcHisRS: 4.762%
- O=C(Nc1ccccc1)N1CCC2(CC(=O)N(c3ccsc3)C2)C1 (centres unmarked) | MtTrpRS: -5.473%; Leishmania in macrophages: 5.529%; TcHisRS: 4.327%
- CCN(C)c1ncnc2c1CCN(C(=O)c1ccccn1)CC2.O=C(O)C(F)(F)F.O=C(O)C(F)(F)F | Leishmania in macrophages: -5.843%
- CCC[C@@H]1CN(C(=O)c2cc3ccccc3s2)C[C@H]1NS(C)(=O)=O | MtTrpRS: 1.718%; Leishmania in macrophages: -44.27%; TcHisRS: 18.82%
- COc1ccc(Cl)cc1S(=O)(=O)N(C)CC(N)=O | MtTrpRS: 3.661%; Leishmania in macrophages: 26.22%; TcHisRS: -1.288%
- Cc1nnc(SCCC(=O)N(C)Cc2ccc(F)cc2Cl)[nH]1 | MtTrpRS: 4.509%; Leishmania in macrophages: 11.48%; TcHisRS: 1.734%
- CCN1C(=O)C(c2ccccc2)CC12CCN(CCO)CC2 (centres unmarked) | MtTrpRS: -4.446%; TcHisRS: 8.738%
- c1ccc(NCc2cn3c(n2)CN(Cc2cccs2)CC3)nc1 | MtTrpRS: -2.695%; TcHisRS: 5.473%